Measured values taken from paper PMC8372973.
These are yes or no findings as the source states them, for the method shown. Some binding calls cover weakened binding; strength is not graded here.

How the values were obtained:
[1] = target: T1, GBD-Stt4(1-257) (S. cerevisiae) (UniProt P37297); assay: two-hybrid; AH109 cells producing GAD-Ypp1 and GBD-fusion proteins; 10-fold serial dilutions spotted on SC -W -L or -A -W -L -H plates with 1 M sorbitol; 2 days at 30°C
T1 sequence: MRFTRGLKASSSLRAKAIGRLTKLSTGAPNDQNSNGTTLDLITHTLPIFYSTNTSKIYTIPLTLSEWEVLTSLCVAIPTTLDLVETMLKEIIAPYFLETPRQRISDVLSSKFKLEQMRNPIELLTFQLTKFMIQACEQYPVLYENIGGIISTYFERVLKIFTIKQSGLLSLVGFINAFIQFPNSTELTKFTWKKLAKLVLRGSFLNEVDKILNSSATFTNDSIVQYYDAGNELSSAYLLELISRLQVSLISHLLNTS

[2] = target: T2, GBD-Stt4frag (Stt4 1-814) (S. cerevisiae) (UniProt P37297); assay: as above
T2 sequence: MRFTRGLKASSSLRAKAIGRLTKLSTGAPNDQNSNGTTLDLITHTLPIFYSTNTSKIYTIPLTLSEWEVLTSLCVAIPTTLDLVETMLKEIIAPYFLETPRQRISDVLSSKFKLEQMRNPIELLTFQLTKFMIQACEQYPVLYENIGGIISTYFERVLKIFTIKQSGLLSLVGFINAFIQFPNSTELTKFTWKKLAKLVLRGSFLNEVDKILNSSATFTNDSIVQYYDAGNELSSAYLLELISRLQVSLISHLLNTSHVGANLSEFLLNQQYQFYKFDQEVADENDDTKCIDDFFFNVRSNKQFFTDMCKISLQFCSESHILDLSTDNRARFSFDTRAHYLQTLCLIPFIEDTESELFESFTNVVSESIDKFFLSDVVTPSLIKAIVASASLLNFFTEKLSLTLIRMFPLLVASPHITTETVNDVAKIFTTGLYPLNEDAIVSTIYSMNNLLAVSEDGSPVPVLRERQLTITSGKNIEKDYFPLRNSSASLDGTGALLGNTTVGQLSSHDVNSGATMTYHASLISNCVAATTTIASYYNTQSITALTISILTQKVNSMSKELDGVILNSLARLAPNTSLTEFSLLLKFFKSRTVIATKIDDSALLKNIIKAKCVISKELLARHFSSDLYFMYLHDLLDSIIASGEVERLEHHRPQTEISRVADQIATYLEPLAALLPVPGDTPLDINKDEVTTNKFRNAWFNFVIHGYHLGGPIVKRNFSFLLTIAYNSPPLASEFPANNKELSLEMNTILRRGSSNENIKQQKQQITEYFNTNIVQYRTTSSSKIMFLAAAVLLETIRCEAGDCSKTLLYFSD

B1: GAD-Ypp1 (protein, UniProt P46951 1-817)
chain: MPNSNVRIPPTVPSKIIDVVDQALRARLLGGSTFNSGFDSLDSVLNLQFRLHYHVIGSNGPAKPVCDVLLKESQNLEKNMSMMEELNDYPEITKLVEKILFNCLGILFFHRGQFQESQRCLLHSLKIHNNTASQKTALMEQYDRYLIVENLYYRGLVSQDINIMQNVFYKELLAHVDTIPPESNGLLFEYISLIVAKLRFNQIQDLAENFKTTVENPFILFLYMIKKFQSPLKKHIDNDDLYLKFGQNVLLKAKFPTASETNDEALEHFNVFLQYYFKFTHIKKIKVNPSWYNFIISSMEKTFQSIEVSKTAMFLFQNLSDNSNDEIKKKTFKRESILNFVNFVKYNDKYYQLHDNSHRDIISFIDAYSFILQNSSKTDSIENVFDYDNTVSTFATSLNSFYKEYNLPLMSQSESLDWLENSTRCVYPGNISKVLTNAWSTLYEIRKYQLDFLVSNNLTSYLCNAMMLSTKEKDNADVEEQEEGEEEKALRELQFKYSYTLAQQRHIETAIKTLESLILSKNPNYYKAWHLLALCRSVQEDKEMSYKIVCSVLEAMNESLQNNTLLLNDRWQFIHLKLTQLALIEEIFGTLEALETLPEVFELYATLFPDSQPELNSMGPKYSQTKEYLLQMVWIFAANMYMRTKDNDEDAKAAIKEASNVESKFKNLNCNIANGYLSIIKDEPGVALKEFETVLYYDENNLDALVGFAELIFPEELGVEETNLERYYTLSLDKKPGKRAKLTFVNDTDRSAAYARLKFLLECAILESIEAYYSPEVWWYLSLIYEKYQDDEYKNSLLKCIKYQELNPIRSLRYCNY
- binding [1]: binds
- binding [2]: binds
